This is an account of results in paper PMC9174161.

The chains behind the UniProt entries cited, without tags or fusion partners.
UniProt Q06710: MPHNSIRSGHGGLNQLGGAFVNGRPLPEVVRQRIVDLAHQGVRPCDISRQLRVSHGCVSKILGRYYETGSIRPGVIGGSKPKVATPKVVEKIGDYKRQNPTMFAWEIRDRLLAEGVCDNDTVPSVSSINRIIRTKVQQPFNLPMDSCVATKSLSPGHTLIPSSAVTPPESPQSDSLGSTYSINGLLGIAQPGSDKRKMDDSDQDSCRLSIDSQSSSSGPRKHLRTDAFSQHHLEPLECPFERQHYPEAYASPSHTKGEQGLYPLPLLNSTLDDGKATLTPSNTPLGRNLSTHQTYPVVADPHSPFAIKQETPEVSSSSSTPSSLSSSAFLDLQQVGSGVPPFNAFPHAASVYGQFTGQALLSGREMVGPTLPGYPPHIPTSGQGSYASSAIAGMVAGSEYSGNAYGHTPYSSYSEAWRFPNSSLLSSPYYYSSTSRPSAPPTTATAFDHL
UniProt O00571: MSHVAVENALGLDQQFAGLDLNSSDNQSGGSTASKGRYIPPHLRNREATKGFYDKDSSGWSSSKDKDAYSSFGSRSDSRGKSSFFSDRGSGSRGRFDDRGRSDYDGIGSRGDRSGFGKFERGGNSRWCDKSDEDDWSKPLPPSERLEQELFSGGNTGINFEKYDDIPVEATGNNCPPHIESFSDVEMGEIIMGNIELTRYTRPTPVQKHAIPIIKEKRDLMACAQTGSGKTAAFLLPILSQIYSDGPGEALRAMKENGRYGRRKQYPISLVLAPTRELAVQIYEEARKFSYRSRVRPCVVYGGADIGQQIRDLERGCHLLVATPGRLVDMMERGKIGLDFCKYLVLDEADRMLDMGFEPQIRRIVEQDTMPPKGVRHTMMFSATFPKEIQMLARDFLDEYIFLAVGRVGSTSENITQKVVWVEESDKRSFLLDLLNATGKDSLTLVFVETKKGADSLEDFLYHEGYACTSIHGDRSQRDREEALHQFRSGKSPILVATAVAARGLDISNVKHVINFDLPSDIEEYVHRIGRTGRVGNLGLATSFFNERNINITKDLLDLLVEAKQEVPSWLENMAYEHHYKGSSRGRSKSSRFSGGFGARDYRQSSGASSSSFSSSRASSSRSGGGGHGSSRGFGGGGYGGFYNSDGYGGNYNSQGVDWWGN
UniProt P17844: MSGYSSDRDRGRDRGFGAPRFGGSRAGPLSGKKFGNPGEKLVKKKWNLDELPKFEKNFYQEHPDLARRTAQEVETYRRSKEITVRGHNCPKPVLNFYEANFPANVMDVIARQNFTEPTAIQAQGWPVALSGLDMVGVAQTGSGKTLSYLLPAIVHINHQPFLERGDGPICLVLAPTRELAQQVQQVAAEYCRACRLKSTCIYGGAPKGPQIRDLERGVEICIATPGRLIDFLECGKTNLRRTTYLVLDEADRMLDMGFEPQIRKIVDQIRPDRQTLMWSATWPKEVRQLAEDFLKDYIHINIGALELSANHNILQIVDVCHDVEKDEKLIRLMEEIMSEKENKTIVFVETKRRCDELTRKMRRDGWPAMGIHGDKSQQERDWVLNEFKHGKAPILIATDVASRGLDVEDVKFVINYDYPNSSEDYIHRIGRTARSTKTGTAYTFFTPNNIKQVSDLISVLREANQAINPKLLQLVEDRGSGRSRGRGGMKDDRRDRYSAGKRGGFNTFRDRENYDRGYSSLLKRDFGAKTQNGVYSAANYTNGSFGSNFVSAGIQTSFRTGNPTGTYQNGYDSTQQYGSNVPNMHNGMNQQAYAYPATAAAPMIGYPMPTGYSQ
UniProt Q92841: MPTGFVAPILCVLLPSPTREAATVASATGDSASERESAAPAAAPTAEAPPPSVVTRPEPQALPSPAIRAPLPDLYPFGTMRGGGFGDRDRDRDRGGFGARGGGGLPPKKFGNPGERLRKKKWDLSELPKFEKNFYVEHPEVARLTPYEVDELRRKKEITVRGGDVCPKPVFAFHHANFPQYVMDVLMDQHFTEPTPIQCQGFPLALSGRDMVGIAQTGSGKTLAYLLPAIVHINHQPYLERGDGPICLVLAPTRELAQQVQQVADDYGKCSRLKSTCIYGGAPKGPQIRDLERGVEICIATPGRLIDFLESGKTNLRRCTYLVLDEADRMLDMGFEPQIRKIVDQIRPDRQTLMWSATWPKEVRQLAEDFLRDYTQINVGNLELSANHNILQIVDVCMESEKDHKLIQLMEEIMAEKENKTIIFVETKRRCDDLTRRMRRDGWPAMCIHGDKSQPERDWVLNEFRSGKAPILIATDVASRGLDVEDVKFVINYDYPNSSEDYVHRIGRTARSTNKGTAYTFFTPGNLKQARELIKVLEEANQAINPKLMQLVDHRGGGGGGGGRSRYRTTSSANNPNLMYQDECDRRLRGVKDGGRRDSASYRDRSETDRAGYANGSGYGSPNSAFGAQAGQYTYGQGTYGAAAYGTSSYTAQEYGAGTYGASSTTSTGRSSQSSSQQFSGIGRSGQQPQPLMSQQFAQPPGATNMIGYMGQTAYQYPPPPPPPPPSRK

This assay deals with HA-tagged PAX8 (Paired box 8) (UniProt Q06710). Put plainly: affinity purification with mass spectrometry; HA-PAX8 overexpressed in HEK293T cells, immunoprecipitated with anti-HA antibody; IgG control; in-gel tryptic digestion, LC-MS/MS (the legend of Fig. 5A says Ishikawa cells and anti-PAX8 antibody).

Results are given in words; binding and its absence hold for the method and conditions named. Binding seen in cells or lysates may run through a third protein. A yes stands for co-enrichment or nearness to the bait. Other partners may have been found.

In the case of DDX3X (from UniProt O00571 1-662), the binding result was “binds”.
DDX5 (from UniProt P17844 1-614): the binding result is listed as “binds”.
In the case of DDX17 (from UniProt Q92841 1-729), the binding result is reported as “binds”.

B1: FBL (protein, UniProt P22087 1-321)
chain: MKPGFSPRGGGFGGRGGFGDRGGRGGRGGFGGGRGRGGGFRGRGRGGGGGGGGGGGGGRGGGGFHSGGNRGRGRGGKRGNQSGKNVMVEPHRHEGVFICRGKEDALVTKNLVPGESVYGEKRVSISEGDDKIEYRAWNPFRSKLAAAILGGVDQIHIKPGAKVLYLGAASGTTVSHVSDIVGPDGLVYAVEFSHRSGRDLINLAKKRTNIIPVIEDARHPHKYRMLIAMVDVIFADVAQPDQTRIVALNAHTFLRNGGHFVISIKANCIDSTASAEAVFASEVKKMQQENMKPQEQLTLEPYERDHAVVVGVYRPPPKVKN
In the case of B1, the binding entry was “binds”.
